This note sets out measurements from PubChem BioAssay AID1347426 (Functional Genomics Laboratory (NCATS/FGL), 2020).

Out of some 31,000 sequences screened, about 1,400 (4.5%) were called active.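 The calls were made as follows: active = median seed-adjusted z-score above 1 or below -1; inactive = the rest.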 The list shows a part of the results.

A short description of this assay: Novel Modifiers of Survival Motor Neuron (SMN) Protein: Gene Identification via Genome-wide siRNA Screen.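 Also: luminescence tracks full-length SMN protein made from the SMN2 reporter.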 The note with it: HEK293T SMN2-luciferase reporter, siRNA knockdown, 72 h; actives lie on both sides. An outline of the steps:
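siRNA screen, 10418 genes ×3 siRNAs; 1 pmol/well, lipid reverse transfection into HEK293T SMN2-luc reporter line. 72 h, 37 °C, 5% CO2; ONE-Glo readout. Data: neg-ctrl normalized, log10, MAD; hit = MAD >1.0 or < -1.0.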
A general note: A reporter such as luciferase makes a cellular process visible.
For CUGUGAAUAUGAAAGGAGATT against NOM1, the median seed-adjusted z-score is inactive: 0.00828.

GCUGGAUAAUACAACUGCATT against EEA1: the median seed-adjusted z-score is inactive: 0.0278. Then CAAGCUAAAGAAGACCAUATT against ARID3B, with inactive: -0.0846; and GGAAGGGAUUAAAAACCAATT against APOBEC3C, with inactive: -0.103; and AGUCAACAGCUAAAACCUUTT against ICAM1, with inactive: 0.345. Take UCUUCUACACCAACCUUUATT against P2RY2: the median seed-adjusted z-score is inactive: 0.119. Next, GGCCUGAUGUUGAGCAGUUTT against SLC16A9: inactive: 0.125; GAUACAAGAUCAAUAUACATT against OXTR: inactive: -0.557.

Take GGGAUGGAUUUUCACCGAUTT against CAMK2D: the median seed-adjusted z-score was inactive: 0.0676. Then GCAUGUAGAUGGUUGUGCATT against CNOT6L, with inactive: -0.0259; and GAUGCUAACCUGUACGUCATT against ELAVL3, with inactive: -0.151; and UGAUGACACCAAUCUCAAATT against TSSK4, with inactive: -0.162. Next, GCCUCUUGUUCGAGAAUAATT against HSD11B1L: inactive: -0.00448. Next, GCAUCGACAUAGGCGAUGATT against ABCC11: inactive: 0.322.

In the case of CCCAUGAUGUGAAGCCUUUTT against TEAD4, the median seed-adjusted z-score was inactive: 0.0908.

In the case of CCAAGAUACUUAGACUGCATT against GAS6, the median seed-adjusted z-score was inactive: -0.493.

As for CUGGAUCCUUUAUUACGAATT against NF1, the median seed-adjusted z-score is inactive: -0.36. With GCACCUAUGCAGCUCUUCATT against FBLIM1, the median seed-adjusted z-score is inactive: 0.0604.

On to GAAUUGUCAGAUUUCGCUUTT against MTMR10, for which the median seed-adjusted z-score was inactive: 0.144. Next, GGCUUUUCUUCAAUAUAGATT against DCT: inactive: -0.184; CCAACUUCACCACAAGGCATT against HOXB1: inactive: -0.0455; GGAUAUAGCUGGUGACCCATT against PCDH7: inactive: 0.192.

Consider GCGUAGACAAUGUUACUAATT against RBM16, for which the median seed-adjusted z-score was inactive: 0.279. In the case of GUAUAUCAAGCAUUCAAAUTT against SUCLG2, the median seed-adjusted z-score was inactive: -0.619. In the case of CCGUCGCACAAAUCUCGAATT against IDH3G, the median seed-adjusted z-score was inactive: -0.426. As for GCAAGAAUCCCUAAAGCAUTT against BAG2, the median seed-adjusted z-score was inactive: -0.87. Next, GGACACGAUCAACAAAUUATT against NEFL: inactive: 0.305.

In the case of GUACAUAGAGGAUAGUAUUTT against LPAR3, the median seed-adjusted z-score was inactive: -0.3.

Take GGGUCACACUAUUUCGUGUTT against ARIH1: the median seed-adjusted z-score is inactive: -0.443. Next, GCUGCUCGACUGAUCCAAATT against MME: inactive: 0.129; UCAACAUCAUGUAGACAAATT against AKAP1: inactive: 0.182; CCUCUUGUCUAUAAGGGAATT against GNPAT: inactive: 0.111. Then AUAUGCGUGUGGAAGACUATT against NDUFB8, with inactive: -0.468. Then GGCAUUUCCGGUAUUAAAATT against HPCAL1, with inactive: -0.00535. As to CGAAAUGUGGGACAUAUUUTT against MFSD9, the median seed-adjusted z-score was inactive: 0.36. On to CAUGUUAAUUGUUAAGGAUTT against WFDC8, for which the median seed-adjusted z-score was inactive: 0.0427. Consider GAGCAGAUCUUUUUAUGCATT against ZNF664, for which the median seed-adjusted z-score was active: 1.08. As to CACUCUCAGUUGUACGUAUTT against PTPRH, the median seed-adjusted z-score was inactive: 0.175.

Take ACCUUCUUCCCGACCCUCATT against PIM2: the median seed-adjusted z-score is inactive: 0.00597. Take CUGCUACGGUAAUAACUCATT against ARSH: the median seed-adjusted z-score was inactive: -0.0414. Then GAAGUAAACAUAUCAAGUUTT against PLGLB2, with inactive: 0.234; and CAAGAUUGAGAAUAUCAGATT against UCHL5, with inactive: -0.358; and UCAAUGAGGUGGUCCUAAATT against TOR3A, with inactive: 0.225. As to GUCUCCUACUUUACCUAUATT against PCDHGA10, the median seed-adjusted z-score was inactive: 0.0621. Then GUCUAUCAGGUGUUUGAAATT against COQ5, with inactive: -0.0292; and CAAAGUCCCUCAUCAGGAATT against SPRED1, with inactive: 0.387; and GGAUAUUACUGCAAUGUCUTT against ZMAT2, with inactive: 0.104. Next, GGGACGCGUUCAUAACUGUTT against CTSW: inactive: -0.342.

As to GGCAAUAAAUCCUAUGUGATT against DHRS9, the median seed-adjusted z-score was inactive: -0.0523. Next, CAUCUACCCAAUACUGUUATT against MS4A1: inactive: 0.414. Consider CUGGAAACAUUGUAUCGAATT against PPEF2, for which the median seed-adjusted z-score was inactive: 0.354. Take CAGCGGCAAUGAUAUCAUUTT against CTNNA2: the median seed-adjusted z-score is inactive: -0.0686.

On to GCAGAGCGGGUUAAAAUGATT against DNAJC2, for which the median seed-adjusted z-score is inactive: -0.0357. Next, GCCUAAUCAUUAUGAUCUATT against TRAF6: inactive: 0.324; CAAUAUUGGAGCGAAUUAATT against AASS: inactive: -0.626; UCUGCUAACCUGAAAGUAATT against CARD8: inactive: 0.115.

As to CAAGAACGUGUACAAGUUUTT against RPN2, the median seed-adjusted z-score was inactive: -0.217. Next, GAACCUUUCUAAUCCAGAATT against NKRF: inactive: -0.0368.

In the case of GCUUUGACGGCGACAGUGATT against CCKBR, the median seed-adjusted z-score is inactive: 0.314. Regarding CUACCUUACUUUAACAUUATT against KCNS3, the median seed-adjusted z-score is inactive: 0.103. Then GAAGAUCGGCUUGAAAUUATT against EIF3H, with inactive: 0.449; and CCUUUAGUAGAAUCAGUUATT against ZNF791, with inactive: 0.219; and AUACCUGAACAGUCCCUCATT against NOBOX, with inactive: -0.426.

Regarding AGUUGUUCAAGUUCCGCAATT against CRTAC1, the median seed-adjusted z-score was inactive: 0.113. For GAGUAACUCGUGUCCCGAATT against KCNK18, the median seed-adjusted z-score was inactive: 0.115. Next, CGCAGAUGCCGAUUGCUUUTT against CASP6: inactive: 0.765. Next, AGAACAACGUGAAGGCACATT against TNPO2: inactive: 0.0785. Next, CAGAUGAGAUUAACACCAUTT against CRP: inactive: -0.212.
